Laboratory results reported in the supplement of paper PMC8728848.
The other results are listed elsewhere or left out.

Assays:
Assay in all cases: glycan array binding signal (z-score within array); higher = stronger binding
Conditions in all cases: glycan notation: IUPAC condensed, linker removed
[1] = target: Gal(b1-4)GlcNAc(b1-3)Gal(b1-4)GlcNAc(b1-2)Man(a1-3)[Gal(b1-4)GlcNAc(b1-3)Gal(b1-4)GlcNAc(b1-2)Man(a1-6)]Man(b1-4)GlcNAc(b1-4)[Fuc(a1-6)]GlcNAc
How it was run: (§1)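 Arrays were curated from the Consortium for Functional Glycomics database, 3228 in total, and kept only where the protein sequence was available. Binding is expressed as a within-array Z-score. This score was averaged across arrays of the same protein sequence at different concentrations or buffers and across linkers, and negative values can be read as non-binding.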

[2] = target: Gal(b1-4)GlcNAc(b1-3)Gal(b1-4)GlcNAc(b1-2)[Gal(b1-4)GlcNAc(b1-3)Gal(b1-4)GlcNAc(b1-6)]Man(a1-6)[Gal(b1-4)GlcNAc(b1-3)Gal(b1-4)GlcNAc(b1-2)Man(a1-3)]Man(b1-4)GlcNAc(b1-4)GlcNAc
How it was run: as §1

[3] = target: Gal(b1-4)GlcNAc(b1-3)Gal(b1-4)GlcNAc(b1-2)[Gal(b1-4)GlcNAc(b1-3)Gal(b1-4)GlcNAc(b1-6)]Man(a1-6)[Gal(b1-4)GlcNAc(b1-3)Gal(b1-4)GlcNAc(b1-2)Man(a1-3)]Man(b1-4)GlcNAc(b1-4)[Fuc(a1-6)]GlcNAc
How it was run: as §1

[4] = target: Gal(b1-4)GlcNAc(b1-3)Gal(b1-4)GlcNAc(b1-3)Gal(b1-4)GlcNAc
How it was run: as §1

[5] = target: Gal(b1-4)GlcNAc(b1-3)Gal(b1-4)GlcNAc(b1-3)Gal(b1-4)GlcNAc(b1-2)Man(a1-3)[Gal(b1-4)GlcNAc(b1-3)Gal(b1-4)GlcNAc(b1-3)Gal(b1-4)GlcNAc(b1-2)Man(a1-6)]Man(b1-4)GlcNAc(b1-4)GlcNAc
How it was run: as §1

[6] = target: Gal(b1-4)GlcNAc(b1-3)Gal(b1-4)GlcNAc(b1-3)Gal(b1-4)GlcNAc(b1-2)Man(a1-3)[Gal(b1-4)GlcNAc(b1-3)Gal(b1-4)GlcNAc(b1-3)Gal(b1-4)GlcNAc(b1-2)Man(a1-6)]Man(b1-4)GlcNAc(b1-4)[Fuc(a1-6)]GlcNAc
How it was run: as §1

[7] = target: Gal(b1-4)GlcNAc(b1-3)Gal(b1-4)GlcNAc(b1-3)Gal(b1-4)GlcNAc(b1-2)[Gal(b1-4)GlcNAc(b1-3)Gal(b1-4)GlcNAc(b1-3)Gal(b1-4)GlcNAc(b1-6)]Man(a1-6)[Gal(b1-4)GlcNAc(b1-3)Gal(b1-4)GlcNAc(b1-3)Gal(b1-4)GlcNAc(b1-2)Man(a1-3)]Man(b1-4)GlcNAc(b1-4)[Fuc(a1-6)]GlcNAc
How it was run: as §1

[8] = target: Gal(b1-4)GlcNAc(b1-3)Gal(b1-4)GlcNAc(b1-3)Gal(b1-4)GlcNAc(b1-3)Gal(b1-4)GlcNAc(b1-2)Man(a1-3)[Gal(b1-4)GlcNAc(b1-3)Gal(b1-4)GlcNAc(b1-3)Gal(b1-4)GlcNAc(b1-3)Gal(b1-4)GlcNAc(b1-2)Man(a1-6)]Man(b1-4)GlcNAc(b1-4)GlcNAc
How it was run: as §1

[9] = target: Gal(b1-4)GlcNAc(b1-3)Gal(b1-4)GlcNAc(b1-3)Gal(b1-4)GlcNAc(b1-3)Gal(b1-4)GlcNAc(b1-2)Man(a1-3)[Gal(b1-4)GlcNAc(b1-3)Gal(b1-4)GlcNAc(b1-3)Gal(b1-4)GlcNAc(b1-3)Gal(b1-4)GlcNAc(b1-2)Man(a1-6)]Man(b1-4)GlcNAc(b1-4)[Fuc(a1-6)]GlcNAc
How it was run: as §1

[10] = target: Gal(b1-4)GlcNAc(b1-3)Gal(b1-4)GlcNAc(b1-3)Gal(b1-4)GlcNAc(b1-3)Gal(b1-4)GlcNAc(b1-2)[Gal(b1-4)GlcNAc(b1-3)Gal(b1-4)GlcNAc(b1-3)Gal(b1-4)GlcNAc(b1-3)Gal(b1-4)GlcNAc(b1-6)]Man(a1-6)[Gal(b1-4)GlcNAc(b1-3)Gal(b1-4)GlcNAc(b1-3)Gal(b1-4)GlcNAc(b1-3)Gal(b1-4)GlcNAc(b1-2)Man(a1-3)]Man(b1-4)GlcNAc(b1-4)[Fuc(a1-6)]GlcNAc
How it was run: as §1

[11] = target: Gal(b1-4)GlcNAc(b1-3)Gal(b1-4)GlcNAc(b1-3)Gal(b1-4)GlcNAc(b1-3)Gal(b1-4)GlcNAc(b1-3)Gal(b1-4)GlcNAc(b1-2)Man(a1-3)[Gal(b1-4)GlcNAc(b1-3)Gal(b1-4)GlcNAc(b1-3)Gal(b1-4)GlcNAc(b1-3)Gal(b1-4)GlcNAc(b1-3)Gal(b1-4)GlcNAc(b1-2)Man(a1-6)]Man(b1-4)GlcNAc(b1-4)GlcNAc
How it was run: as §1

[12] = target: Gal(b1-4)GlcNAc(b1-3)Gal(b1-4)GlcNAc(b1-3)Gal(b1-4)GlcNAc(b1-3)Gal(b1-4)GlcNAc(b1-3)Gal(b1-4)GlcNAc(b1-2)Man(a1-3)[Gal(b1-4)GlcNAc(b1-3)Gal(b1-4)GlcNAc(b1-3)Gal(b1-4)GlcNAc(b1-3)Gal(b1-4)GlcNAc(b1-3)Gal(b1-4)GlcNAc(b1-2)Man(a1-6)]Man(b1-4)GlcNAc(b1-4)[Fuc(a1-6)]GlcNAc
How it was run: as §1

[13] = target: Gal(b1-4)GlcNAc(b1-3)Gal(b1-4)GlcNAc(b1-3)Gal(b1-4)GlcNAc(b1-3)Gal(b1-4)GlcNAc(b1-3)Gal(b1-4)GlcNAc(b1-2)[Gal(b1-4)GlcNAc(b1-3)Gal(b1-4)GlcNAc(b1-3)Gal(b1-4)GlcNAc(b1-3)Gal(b1-4)GlcNAc(b1-3)Gal(b1-4)GlcNAc(b1-6)]Man(a1-6)[Gal(b1-4)GlcNAc(b1-3)Gal(b1-4)GlcNAc(b1-3)Gal(b1-4)GlcNAc(b1-3)Gal(b1-4)GlcNAc(b1-3)Gal(b1-4)GlcNAc(b1-2)Man(a1-3)]Man(b1-4)GlcNAc(b1-4)[Fuc(a1-6)]GlcNAc
How it was run: as §1

[14] = target: Gal(b1-4)GlcNAc(b1-3)Gal(b1-4)GlcNAc(b1-3)Gal(b1-4)GlcNAc(b1-3)Gal(b1-4)GlcNAc(b1-3)Gal(b1-4)GlcNAc(b1-3)Gal(b1-4)GlcNAc(b1-2)Man(a1-3)[Gal(b1-4)GlcNAc(b1-3)Gal(b1-4)GlcNAc(b1-3)Gal(b1-4)GlcNAc(b1-3)Gal(b1-4)GlcNAc(b1-3)Gal(b1-4)GlcNAc(b1-3)Gal(b1-4)GlcNAc(b1-2)Man(a1-6)]Man(b1-4)GlcNAc(b1-4)GlcNAc
How it was run: as §1

[15] = target: Gal(b1-4)GlcNAc(b1-3)Gal(b1-4)GlcNAc(b1-3)GalNAc
How it was run: as §1

[16] = target: Gal(b1-4)GlcNAc(b1-3)Gal(b1-4)GlcNAc(b1-3)[Gal(b1-4)GlcNAc(b1-3)Gal(b1-4)GlcNAc(b1-6)]GalNAc
How it was run: as §1

[17] = target: Gal(b1-4)GlcNAc(b1-3)Gal(b1-4)GlcNAc(b1-6)[Gal(b1-3)]GalNAc
How it was run: as §1

[18] = target: Gal(b1-4)GlcNAc(b1-3)Gal(b1-4)[Fuc(a1-3)]GlcNAc(b1-3)Gal(b1-4)[Fuc(a1-3)]GlcNAc
How it was run: as §1

[19] = target: Gal(b1-4)GlcNAc(b1-3)GalNAc
How it was run: as §1

[20] = target: Gal(b1-4)GlcNAc(b1-3)[Fuc(a1-3)GlcNAc(b1-6)]Gal(b1-4)Glc
How it was run: as §1

[21] = target: Gal(b1-4)GlcNAc(b1-3)[Gal(b1-4)GlcNAc(b1-6)]Gal(b1-4)GlcNAc
How it was run: as §1

[22] = target: Gal(b1-4)GlcNAc(b1-3)[GlcNAc(b1-6)]Gal(b1-4)GlcNAc
How it was run: as §1

[23] = target: Gal(b1-4)GlcNAc(b1-6)Gal(b1-4)GlcNAc
How it was run: as §1

[24] = target: Gal(b1-4)GlcNAc(b1-6)GalNAc
How it was run: as §1

[25] = target: Gal(b1-4)GlcNAc(b1-6)[Gal(b1-3)]GalNAc
How it was run: as §1

[26] = target: Gal(b1-4)GlcNAc(b1-6)[Gal(b1-4)GlcNAc(b1-3)]GalNAc
How it was run: as §1

Gal(b1-4)GlcNAc6P = target: Gal(b1-4)GlcNAc6P
How it was run: as §1

Gal(b1-6)Gal = target: Gal(b1-6)Gal
How it was run: as §1

Gal3S(b1-3)GalNAc = target: Gal3S(b1-3)GalNAc
How it was run: as §1

Gal3S(b1-3)GlcNAc = target: Gal3S(b1-3)GlcNAc
How it was run: as §1

[27] = target: Gal3S(b1-3)[Fuc(a1-4)]GlcNAc
How it was run: as §1

Gal3S(b1-4)Glc = target: Gal3S(b1-4)Glc
How it was run: as §1

Gal3S(b1-4)Glc6S = target: Gal3S(b1-4)Glc6S
How it was run: as §1

Gal3S(b1-4)GlcNAc = target: Gal3S(b1-4)GlcNAc
How it was run: as §1

[28] = target: Gal3S(b1-4)[Fuc(a1-3)]Glc6S
How it was run: as §1

[29] = target: Gal3S(b1-4)[Fuc(a1-3)]GlcNAc
How it was run: as §1

[30] = target: Gal3S(b1-4)[Fuc(a1-3)]GlcNAc6S
How it was run: as §1

B1: Erv46-EDTA (Saccharomyces cerevisiae), P39727 (protein)
chain: MKFLVNVALVFMVVYISYIYAAAPEHHHHHHDYDIPTTENLYFQGAMDSVVTRPQLVVDRDRHAKLELNMDVTFPSMPCDLVNLDIMDDSGEMQLDILDAGFTMSRLNSEGRPVGDATELHVGGNGDGTAPVNNDPNYCGPCYGAKDQSQNENLAQEEKVCCQDCDAVRSAYLEAGWAFFDGKNIEQCEREGYVSKINEHLNEGCRIKGSAQINRIQGNLHFAPGKPYQNAYGHFHDTSLYDKTSNLNFNHIINHLSFGKPIQSHSKLLGNDKRHGGAVVATSPLDGRQVFPDRNTHFHQFSYFAKIVPTRYEYLDNVVIETAQFSATFHSRPLAGGRDKDHPNTLHVRGGIPGMFVFFEMSPLKVINKEQ
[1]
  glycan array binding signal (z-score): 1.81
[2]
  glycan array binding signal (z-score): 2.71
[3]
  glycan array binding signal (z-score): 2.65
[4]
  glycan array binding signal (z-score): 0.66
[5]
  glycan array binding signal (z-score): 3.36
[6]
  glycan array binding signal (z-score): 0.623
[7]
  glycan array binding signal (z-score): 0.628
[8]
  glycan array binding signal (z-score): 0.46
[9]
  glycan array binding signal (z-score): 0.506
[10]
  glycan array binding signal (z-score): 2.05
[11]
  glycan array binding signal (z-score): 0.249
[12]
  glycan array binding signal (z-score): 1.81
[13]
  glycan array binding signal (z-score): 1.32
[14]
  glycan array binding signal (z-score): 1.41
[15]
  glycan array binding signal (z-score): 2.4
[16]
  glycan array binding signal (z-score): 0.347
[17]
  glycan array binding signal (z-score): -0.202
[18]
  glycan array binding signal (z-score): 0.231
[19]
  glycan array binding signal (z-score): -0.116
[20]
  glycan array binding signal (z-score): -0.11
[21]
  glycan array binding signal (z-score): -0.821
[22]
  glycan array binding signal (z-score): -0.81
[23]
  glycan array binding signal (z-score): -0.78
[24]
  glycan array binding signal (z-score): 0.987
[25]
  glycan array binding signal (z-score): -0.3
[26]
  glycan array binding signal (z-score): -0.11
Gal(b1-4)GlcNAc6P
  glycan array binding signal (z-score): -0.826
Gal(b1-6)Gal
  glycan array binding signal (z-score): -0.241
Gal3S(b1-3)GalNAc
  glycan array binding signal (z-score): 0.736
Gal3S(b1-3)GlcNAc
  glycan array binding signal (z-score): -0.252
[27]
  glycan array binding signal (z-score): 1.12
Gal3S(b1-4)Glc
  glycan array binding signal (z-score): -0.456
Gal3S(b1-4)Glc6S
  glycan array binding signal (z-score): -0.683
Gal3S(b1-4)GlcNAc
  glycan array binding signal (z-score): 0.203
[28]
  glycan array binding signal (z-score): 0.233
[29]
  glycan array binding signal (z-score): -0.802
[30]
  glycan array binding signal (z-score): 0.133
